Two molecules from PMC10795994 can be followed below.

Chains of the proteins cited; added tags and fusions are not shown. Lines headed by an entry give the natural chain unless they say otherwise; changes in a name come on top.
UniProt Q10135: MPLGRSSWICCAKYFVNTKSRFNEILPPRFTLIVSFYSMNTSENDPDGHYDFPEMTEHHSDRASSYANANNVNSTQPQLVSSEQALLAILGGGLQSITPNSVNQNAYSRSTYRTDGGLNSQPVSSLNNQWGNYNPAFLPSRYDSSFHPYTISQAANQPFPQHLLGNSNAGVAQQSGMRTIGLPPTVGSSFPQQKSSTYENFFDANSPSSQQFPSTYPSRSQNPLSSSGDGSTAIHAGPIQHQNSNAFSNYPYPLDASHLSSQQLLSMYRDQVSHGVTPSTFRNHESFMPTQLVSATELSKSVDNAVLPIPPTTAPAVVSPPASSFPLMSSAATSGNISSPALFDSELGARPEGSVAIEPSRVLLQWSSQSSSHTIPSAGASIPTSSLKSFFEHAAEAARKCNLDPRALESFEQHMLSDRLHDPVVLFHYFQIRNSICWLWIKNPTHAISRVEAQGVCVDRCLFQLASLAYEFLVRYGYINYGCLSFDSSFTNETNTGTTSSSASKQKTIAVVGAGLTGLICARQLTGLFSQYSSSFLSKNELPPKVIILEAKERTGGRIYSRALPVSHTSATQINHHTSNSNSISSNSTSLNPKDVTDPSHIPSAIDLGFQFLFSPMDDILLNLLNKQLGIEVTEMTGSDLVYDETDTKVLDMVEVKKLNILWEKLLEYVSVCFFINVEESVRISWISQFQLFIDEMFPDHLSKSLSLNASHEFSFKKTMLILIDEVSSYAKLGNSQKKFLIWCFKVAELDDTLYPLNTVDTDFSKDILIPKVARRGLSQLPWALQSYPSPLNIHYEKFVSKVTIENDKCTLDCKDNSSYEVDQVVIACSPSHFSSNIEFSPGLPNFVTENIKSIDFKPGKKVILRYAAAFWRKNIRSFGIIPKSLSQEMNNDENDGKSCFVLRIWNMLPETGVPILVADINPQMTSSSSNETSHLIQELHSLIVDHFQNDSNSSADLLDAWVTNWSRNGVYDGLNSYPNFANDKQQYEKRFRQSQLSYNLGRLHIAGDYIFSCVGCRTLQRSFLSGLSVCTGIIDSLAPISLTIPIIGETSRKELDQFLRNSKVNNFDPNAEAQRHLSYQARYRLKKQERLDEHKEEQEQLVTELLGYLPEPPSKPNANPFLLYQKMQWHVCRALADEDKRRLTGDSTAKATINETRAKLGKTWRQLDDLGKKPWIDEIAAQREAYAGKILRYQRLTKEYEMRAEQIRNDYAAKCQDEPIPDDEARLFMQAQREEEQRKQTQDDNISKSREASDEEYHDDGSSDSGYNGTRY

Results are given in words; binding and its absence hold for the method and conditions named. Binding seen in cells or lysates may run through a third protein. A result given as binding can be weak or reduced; the word gives no strength. Where a sequence is shown, tags or fusion partners need not be part of it.

In this experiment the target is lsd2-ΔC-FTP (S. pombe) (UniProt Q10135). In words: co-IP; FTP-tagged Lsd1 or Lsd2 precipitated from S. pombe whole cell extract with IgG Sepharose beads, 4-6 hours at 4°C; western blot with PAP, anti-myc or anti-HA.

B1: Phf2-myc (protein, UniProt Q09908 1-538)
chain: MPNSSYYDDDGGSFEAASYPFQFDGSRRFPNDLHPTMFEGEESNQNGGSVLIDQAFQDIQNPNVNSNMHLENQFQHFHEPNKESGAFGSYKNDDVAKEIESSKNQETDAKSEQAPFTEDASSSNYAHHRSADSQTKSALPPNVPASSSPLPPMSIAMNIARKRSWPASLAIERDNTADALFSTEDGREEQFNLEGVKTKSGRKVHRPNHFDPLVKLPTRRRGPGRRPVVALAMKCSVCQRLQSPPKNRIVFCDGCNTPFHQLCHEPYISDELLDSPNGEWFCDDCIRRKKQAPLVTGTTARELNLSSEEKKSYLLSLPISQLVDILLFCEQLHPDIPFYSPKTSTIVQELQSKRSAFTATMNEPVTGDQYLSLNNGTESQSKTTKHSTSLPSTEPVEVDKQYMESEKIPTIDEYLQEYSNEDEIVLQVLESFPAAVSFSTITNTIQAKYSNRKIKNSNITRSLNRLVRKNRVLRDARGSSYELNRTFDADRPSVRPDISITGPIPIDWMLYTPHTEDLTENFCTYYMFDETPIVLSSI
B1: the binding result is listed as “binds”.

B2: Phf1-myc (protein, UniProt P87233 1-461)
chain: MSQKNFFDEGKSYGVNDYAGFHFENGADSSLPQVSAQGVVRETDSSNFDASPVASGSGISDVGPFGADFHQLQQHVQTPYGGMTMPASSSSGATSVPPEQDPSLSVSFNRLPKSASTKTKNGRIRSSRREDDNRIPFYDLDVAEGAEDDLQEDFHVEGMKTKSGRKIQRPVAYNPNATALKRKSRKVDMVTLCSVCQRGHSPLSNRIVFCDGCNSPYHQLCHHPPIDDATVQDVDAEWFCMKCQYRRAKQPLETGMTAQDLGLSESDKKMYLSSLPTPHLADLILFCEKSYPSLPIYNPRTRELLGEIRHQLLVSSERQQISLQERLHAKQDEAPSDEPAPVPYTASYVANSGTLYDYPTLIRLAIRNTLSPSKDEIFNWLAQNVPLLPTFHDSASEAIRWMVNKGQLVRSGSIYQIATVEEYPHLQPSLLPTFQRNRKVPKLVPVSFPTDDPQNLCATVL
As for B2, the binding result is “binds”.
